Assay [1] addresses Sterol response element binding protein 2 (SREBP2), human (human (endogenous in HepG2)) (UniProt Q12772). The assay can be described thus: Re-ChIP; sequential chromatin immunoprecipitation with two antibodies from formaldehyde cross-linked, sonicated chromatin of HepG2 cells cultured in LDM1 or LDM2; qPCR of cholesterogenic gene promoters.
Assay [2] has the same target. The assay can be described thus: co-IP; nuclear lysates of HepG2 cells cultured in LDM1 or LDM2 for 24 h; anti-Brg1, anti-SREBP2 or pre-immune IgG, overnight, Protein A/G-plus agarose; Western blot. (In general: In western blotting, separated proteins are transferred to a membrane and probed.)
Assay [3] concerns the target Sterol response element binding protein 2 (SREBP2), mouse (mouse (endogenous in liver)) (UniProt Q3U1N2). The assay can be described thus: co-IP; liver nuclear lysates of C57/BL6 mice fed an HFHC diet (16 weeks) or an MCD diet (8 weeks); anti-Brg1, anti-SREBP2 or pre-immune IgG, overnight, Protein A/G-plus agarose; Western blot.
Assay [4] has the same target. The assay can be described thus: Re-ChIP; sequential chromatin immunoprecipitation with two antibodies from formaldehyde cross-linked, sonicated liver chromatin of mice fed an HFHC or MCD diet; qPCR of cholesterogenic gene promoters.
Assay [5] deals with Sterol response element binding protein 2 (SREBP2), human (human (endogenous in HepG2)) (UniProt Q12772). The assay can be described thus: Re-ChIP; sequential chromatin immunoprecipitation with two antibodies from formaldehyde cross-linked, sonicated chromatin of HepG2 cells cultured in LDM1 or LDM2; qPCR of cholesterogenic gene promoters. This is another data set of the same source. (In qPCR the cycle at which signal appears reflects the starting amount.)

By UniProt entry, the sequences of proteins in these tests, tags left out. Where a name states a change or a piece, a line headed by the entry shows the natural chain unless it says otherwise.
UniProt Q12772: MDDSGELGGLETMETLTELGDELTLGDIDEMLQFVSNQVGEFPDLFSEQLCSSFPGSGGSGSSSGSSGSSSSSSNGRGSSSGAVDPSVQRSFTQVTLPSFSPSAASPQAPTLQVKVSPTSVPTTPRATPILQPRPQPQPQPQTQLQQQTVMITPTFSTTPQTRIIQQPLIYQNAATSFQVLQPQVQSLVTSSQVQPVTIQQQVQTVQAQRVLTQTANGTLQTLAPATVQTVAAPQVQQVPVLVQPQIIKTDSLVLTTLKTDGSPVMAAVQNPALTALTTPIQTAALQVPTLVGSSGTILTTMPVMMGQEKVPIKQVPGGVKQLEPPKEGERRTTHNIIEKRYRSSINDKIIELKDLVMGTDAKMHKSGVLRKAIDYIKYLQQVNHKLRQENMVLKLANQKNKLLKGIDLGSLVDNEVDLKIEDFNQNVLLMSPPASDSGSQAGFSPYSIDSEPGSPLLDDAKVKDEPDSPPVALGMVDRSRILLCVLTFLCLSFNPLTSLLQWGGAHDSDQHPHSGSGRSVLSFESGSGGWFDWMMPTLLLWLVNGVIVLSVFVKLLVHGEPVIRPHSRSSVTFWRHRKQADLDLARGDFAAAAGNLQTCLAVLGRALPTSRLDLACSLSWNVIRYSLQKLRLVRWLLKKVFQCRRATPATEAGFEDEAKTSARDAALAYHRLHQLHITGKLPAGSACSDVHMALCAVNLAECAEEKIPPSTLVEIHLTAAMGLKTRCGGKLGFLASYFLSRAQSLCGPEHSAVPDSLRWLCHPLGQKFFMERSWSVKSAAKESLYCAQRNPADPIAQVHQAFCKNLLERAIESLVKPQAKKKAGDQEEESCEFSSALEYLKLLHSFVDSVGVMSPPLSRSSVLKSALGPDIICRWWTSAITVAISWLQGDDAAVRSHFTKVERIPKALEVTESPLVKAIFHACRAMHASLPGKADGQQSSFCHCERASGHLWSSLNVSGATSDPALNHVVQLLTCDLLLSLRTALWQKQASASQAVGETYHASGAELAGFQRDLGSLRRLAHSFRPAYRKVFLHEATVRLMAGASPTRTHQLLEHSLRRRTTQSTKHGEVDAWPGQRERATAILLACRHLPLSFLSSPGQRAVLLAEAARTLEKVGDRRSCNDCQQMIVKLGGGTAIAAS
UniProt Q3U1N2: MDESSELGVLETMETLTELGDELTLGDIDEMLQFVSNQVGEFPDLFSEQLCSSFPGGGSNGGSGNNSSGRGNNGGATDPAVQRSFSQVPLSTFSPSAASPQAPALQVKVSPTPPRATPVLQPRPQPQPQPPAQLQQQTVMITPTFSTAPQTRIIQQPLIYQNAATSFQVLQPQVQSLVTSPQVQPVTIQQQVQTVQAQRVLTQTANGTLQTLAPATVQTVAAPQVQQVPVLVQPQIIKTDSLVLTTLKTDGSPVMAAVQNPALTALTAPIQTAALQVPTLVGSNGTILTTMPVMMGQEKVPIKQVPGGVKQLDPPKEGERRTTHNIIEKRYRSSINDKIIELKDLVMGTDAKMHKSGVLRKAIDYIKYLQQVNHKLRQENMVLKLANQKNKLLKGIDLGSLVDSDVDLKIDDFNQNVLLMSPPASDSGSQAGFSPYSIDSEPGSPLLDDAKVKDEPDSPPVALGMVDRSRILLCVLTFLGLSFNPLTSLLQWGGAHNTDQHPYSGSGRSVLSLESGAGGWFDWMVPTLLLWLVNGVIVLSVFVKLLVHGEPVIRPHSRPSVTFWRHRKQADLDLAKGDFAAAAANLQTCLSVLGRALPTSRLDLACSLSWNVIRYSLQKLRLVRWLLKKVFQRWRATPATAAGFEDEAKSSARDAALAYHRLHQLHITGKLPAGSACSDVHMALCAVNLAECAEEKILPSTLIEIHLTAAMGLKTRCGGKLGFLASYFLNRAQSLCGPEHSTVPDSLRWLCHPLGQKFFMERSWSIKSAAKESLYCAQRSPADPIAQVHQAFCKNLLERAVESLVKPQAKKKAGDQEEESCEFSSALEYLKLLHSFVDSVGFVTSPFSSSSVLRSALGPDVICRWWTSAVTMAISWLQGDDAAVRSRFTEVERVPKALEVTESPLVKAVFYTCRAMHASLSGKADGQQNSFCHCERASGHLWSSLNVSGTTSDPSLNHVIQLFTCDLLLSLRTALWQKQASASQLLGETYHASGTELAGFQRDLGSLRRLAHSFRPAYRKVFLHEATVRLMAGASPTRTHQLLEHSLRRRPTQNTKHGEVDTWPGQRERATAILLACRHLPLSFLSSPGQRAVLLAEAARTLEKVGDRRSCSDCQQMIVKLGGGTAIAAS
UniProt P51532: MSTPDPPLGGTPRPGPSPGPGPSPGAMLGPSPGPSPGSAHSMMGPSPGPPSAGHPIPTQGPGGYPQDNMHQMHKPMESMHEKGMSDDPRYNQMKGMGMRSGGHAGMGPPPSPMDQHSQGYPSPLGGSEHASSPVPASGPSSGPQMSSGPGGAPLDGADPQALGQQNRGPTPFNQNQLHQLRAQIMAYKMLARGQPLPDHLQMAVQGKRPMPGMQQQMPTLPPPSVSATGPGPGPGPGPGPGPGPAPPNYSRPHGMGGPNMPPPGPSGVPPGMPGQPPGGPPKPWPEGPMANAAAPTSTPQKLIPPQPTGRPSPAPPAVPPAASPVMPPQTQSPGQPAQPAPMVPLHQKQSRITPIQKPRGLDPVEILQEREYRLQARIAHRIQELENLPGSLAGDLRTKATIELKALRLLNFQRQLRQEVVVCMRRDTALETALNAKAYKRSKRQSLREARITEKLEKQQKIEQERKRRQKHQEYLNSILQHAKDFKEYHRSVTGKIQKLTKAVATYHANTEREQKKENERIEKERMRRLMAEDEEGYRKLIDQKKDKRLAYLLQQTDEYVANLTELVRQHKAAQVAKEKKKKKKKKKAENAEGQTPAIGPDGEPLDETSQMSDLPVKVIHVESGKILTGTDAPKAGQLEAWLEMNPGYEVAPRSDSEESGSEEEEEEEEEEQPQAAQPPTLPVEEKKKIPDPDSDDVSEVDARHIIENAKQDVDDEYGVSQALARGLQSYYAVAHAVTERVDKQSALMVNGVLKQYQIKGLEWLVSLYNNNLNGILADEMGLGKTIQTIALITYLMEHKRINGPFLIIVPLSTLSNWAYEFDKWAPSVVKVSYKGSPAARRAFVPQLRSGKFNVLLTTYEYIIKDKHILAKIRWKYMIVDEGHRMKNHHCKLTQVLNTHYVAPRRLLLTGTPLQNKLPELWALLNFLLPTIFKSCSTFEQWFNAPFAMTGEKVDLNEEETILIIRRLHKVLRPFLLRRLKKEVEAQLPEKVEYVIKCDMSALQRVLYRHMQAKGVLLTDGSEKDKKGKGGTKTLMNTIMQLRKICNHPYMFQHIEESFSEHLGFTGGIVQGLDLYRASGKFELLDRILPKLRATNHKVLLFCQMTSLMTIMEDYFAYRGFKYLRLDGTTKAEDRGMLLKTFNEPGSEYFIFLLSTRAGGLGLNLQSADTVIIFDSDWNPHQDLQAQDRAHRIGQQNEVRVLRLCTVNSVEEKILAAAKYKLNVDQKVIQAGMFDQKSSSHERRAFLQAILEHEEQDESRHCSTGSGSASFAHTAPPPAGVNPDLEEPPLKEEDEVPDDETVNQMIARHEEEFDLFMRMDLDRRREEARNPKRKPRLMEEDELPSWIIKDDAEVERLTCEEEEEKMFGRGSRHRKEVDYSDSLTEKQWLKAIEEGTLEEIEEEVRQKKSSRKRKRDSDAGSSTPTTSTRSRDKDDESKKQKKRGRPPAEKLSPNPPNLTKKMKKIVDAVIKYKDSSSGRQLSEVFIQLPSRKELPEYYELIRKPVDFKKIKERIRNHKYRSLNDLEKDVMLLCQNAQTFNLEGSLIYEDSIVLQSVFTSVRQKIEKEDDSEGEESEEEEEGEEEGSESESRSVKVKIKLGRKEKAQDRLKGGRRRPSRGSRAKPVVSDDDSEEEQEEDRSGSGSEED
UniProt Q3TKT4: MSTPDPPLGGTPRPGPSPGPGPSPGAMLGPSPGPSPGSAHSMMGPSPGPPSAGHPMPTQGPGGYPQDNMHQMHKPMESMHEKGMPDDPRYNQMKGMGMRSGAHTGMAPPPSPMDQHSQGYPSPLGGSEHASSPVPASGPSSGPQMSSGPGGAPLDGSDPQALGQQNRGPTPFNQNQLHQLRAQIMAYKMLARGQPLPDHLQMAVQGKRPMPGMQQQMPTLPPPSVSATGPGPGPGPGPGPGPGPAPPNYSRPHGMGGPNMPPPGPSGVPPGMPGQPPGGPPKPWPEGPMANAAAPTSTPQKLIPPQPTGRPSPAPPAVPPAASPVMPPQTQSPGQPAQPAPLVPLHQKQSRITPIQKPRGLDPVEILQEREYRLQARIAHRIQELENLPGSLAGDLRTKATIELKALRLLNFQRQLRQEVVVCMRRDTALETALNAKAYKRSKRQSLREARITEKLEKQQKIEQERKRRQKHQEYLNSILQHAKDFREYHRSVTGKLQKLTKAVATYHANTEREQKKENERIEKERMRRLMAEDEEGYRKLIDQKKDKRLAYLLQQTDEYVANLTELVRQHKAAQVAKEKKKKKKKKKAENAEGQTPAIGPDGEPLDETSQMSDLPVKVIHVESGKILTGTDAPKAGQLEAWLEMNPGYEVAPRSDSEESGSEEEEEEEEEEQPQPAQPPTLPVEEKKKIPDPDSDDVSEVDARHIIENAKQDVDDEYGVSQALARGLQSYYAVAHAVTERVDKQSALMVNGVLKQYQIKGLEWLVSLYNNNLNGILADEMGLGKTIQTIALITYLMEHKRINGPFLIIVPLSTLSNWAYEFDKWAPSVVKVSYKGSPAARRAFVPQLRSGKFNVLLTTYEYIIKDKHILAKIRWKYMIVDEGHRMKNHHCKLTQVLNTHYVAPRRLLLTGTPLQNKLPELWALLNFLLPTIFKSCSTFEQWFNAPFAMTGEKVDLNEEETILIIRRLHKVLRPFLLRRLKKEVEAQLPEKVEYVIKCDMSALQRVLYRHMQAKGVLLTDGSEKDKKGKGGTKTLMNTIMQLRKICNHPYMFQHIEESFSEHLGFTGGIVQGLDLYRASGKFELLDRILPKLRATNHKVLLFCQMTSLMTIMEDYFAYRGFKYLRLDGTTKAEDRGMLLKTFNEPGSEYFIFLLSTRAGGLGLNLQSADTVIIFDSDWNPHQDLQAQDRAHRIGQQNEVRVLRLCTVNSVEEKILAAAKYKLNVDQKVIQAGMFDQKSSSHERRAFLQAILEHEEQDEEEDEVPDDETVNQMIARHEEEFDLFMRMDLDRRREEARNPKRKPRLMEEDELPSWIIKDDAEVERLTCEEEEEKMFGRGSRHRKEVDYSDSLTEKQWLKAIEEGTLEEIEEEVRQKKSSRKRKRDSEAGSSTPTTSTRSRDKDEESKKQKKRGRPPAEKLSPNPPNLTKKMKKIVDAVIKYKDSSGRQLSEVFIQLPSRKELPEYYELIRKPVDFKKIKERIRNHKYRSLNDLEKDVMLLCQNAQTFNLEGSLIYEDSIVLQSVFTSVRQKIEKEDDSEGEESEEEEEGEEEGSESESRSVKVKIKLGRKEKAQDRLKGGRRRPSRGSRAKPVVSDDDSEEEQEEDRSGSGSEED

No constants are given. Whether binding was seen depends on the method and setting. A result given as binding can be weak or reduced; the word gives no strength. For some assays here: Binding seen in cells or lysates may run through a third protein.

Among the data in publication PMC7243037 are binding values, retold here.

For the molecule “Brahma related gene 1 (BRG1), human (from UniProt P51532 1-1647)”, the binding result in assay [1] and in assay [2] was “binds” throughout.
As for “Brahma related gene 1 (Brg1), mouse (from UniProt Q3TKT4 1-1613)”, the binding entry in assay [3] and in assay [4] was “binds” in each case.

B1: KDM3A, human (protein, UniProt Q9Y4C1 1-1321)
chain: MVLTLGESWPVLVGRRFLSLSAADGSDGSHDSWDVERVAEWPWLSGTIRAVSHTDVTKKDLKVCVEFDGESWRKRRWIEVYSLLRRAFLVEHNLVLAERKSPEISERIVQWPAITYKPLLDKAGLGSITSVRFLGDQQRVFLSKDLLKPIQDVNSLRLSLTDNQIVSKEFQALIVKHLDESHLLKGDKNLVGSEVKIYSLDPSTQWFSATVINGNPASKTLQVNCEEIPALKIVDPSLIHVEVVHDNLVTCGNSARIGAVKRKSSENNGTLVSKQAKSCSEASPSMCPVQSVPTTVFKEILLGCTAATPPSKDPRQQSTPQAANSPPNLGAKIPQGCHKQSLPEEISSCLNTKSEALRTKPDVCKAGLLSKSSQIGTGDLKILTEPKGSCTQPKTNTDQENRLESVPQALTGLPKECLPTKASSKAELEIANPPELQKHLEHAPSPSDVSNAPEVKAGVNSDSPNNCSGKKVEPSALACRSQNLKESSVKVDNESCCSRSNNKIQNAPSRKSVLTDPAKLKKLQQSGEAFVQDDSCVNIVAQLPKCRECRLDSLRKDKEQQKDSPVFCRFFHFRRLQFNKHGVLRVEGFLTPNKYDNEAIGLWLPLTKNVVGIDLDTAKYILANIGDHFCQMVISEKEAMSTIEPHRQVAWKRAVKGVREMCDVCDTTIFNLHWVCPRCGFGVCVDCYRMKRKNCQQGAAYKTFSWLKCVKSQIHEPENLMPTQIIPGKALYDVGDIVHSVRAKWGIKANCPCSNRQFKLFSKPASKEDLKQTSLAGEKPTLGAVLQQNPSVLEPAAVGGEAASKPAGSMKPACPASTSPLNWLADLTSGNVNKENKEKQPTMPILKNEIKCLPPLPPLSKSSTVLHTFNSTILTPVSNNNSGFLRNLLNSSTGKTENGLKNTPKILDDIFASLVQNKTTSDLSKRPQGLTIKPSILGFDTPHYWLCDNRLLCLQDPNNKSNWNVFRECWKQGQPVMVSGVHHKLNSELWKPESFRKEFGEQEVDLVNCRTNEIITGATVGDFWDGFEDVPNRLKNEKEPMVLKLKDWPPGEDFRDMMPSRFDDLMANIPLPEYTRRDGKLNLASRLPNYFVRPDLGPKMYNAYGLITPEDRKYGTTNLHLDVSDAANVMVYVGIPKGQCEQEEEVLKTIQDGDSDELTIKRFIEGKEKPGALWHIYAAKDTEKIREFLKKVSEEQGQENPADHDPIHDQSWYLDRSLRKRLHQEYGVQGWAIVQFLGDVVFIPAGAPHQVHNLYSCIKVAEDFVSPEHVKHCFWLTQEFRYLSQTHTNHEDKLQVKNVIYHAVKDAVAMLKASESSFGKP
On to B1, for which, in assay [5], the binding entry is reported as “binds”.
